Test results as given in article PMC4373776.
Numbering of substitutions follows the chain as printed. For some of these results: A negative result means that nothing was seen under these conditions. For some of these results: At least one verdict was read from the data and is not stated in words by the source. A weaker result is weaker than the reference pair of the same experiment. For some of these results: Where a protein sequence is shown, tags need not be part of it.

Sequences of proteins named here, by UniProt entry; tags and fusion partners are left off. A change or cut given only in a name is not applied to a line headed by its entry.
UniProt Q8BVN9: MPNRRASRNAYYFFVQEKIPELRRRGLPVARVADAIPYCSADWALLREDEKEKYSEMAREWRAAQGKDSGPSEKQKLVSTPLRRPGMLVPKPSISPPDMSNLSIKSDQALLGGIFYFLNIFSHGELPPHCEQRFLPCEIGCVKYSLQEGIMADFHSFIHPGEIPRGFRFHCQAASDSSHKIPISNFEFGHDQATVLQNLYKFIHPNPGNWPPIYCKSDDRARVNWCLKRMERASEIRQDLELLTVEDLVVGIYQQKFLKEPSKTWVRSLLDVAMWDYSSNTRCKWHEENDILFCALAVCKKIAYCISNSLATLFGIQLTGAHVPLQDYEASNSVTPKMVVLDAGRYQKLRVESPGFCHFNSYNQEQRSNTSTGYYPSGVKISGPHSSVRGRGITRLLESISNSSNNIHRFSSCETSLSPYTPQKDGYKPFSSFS

Columns and labels:
Assay in all cases: EMSA
[1] = molecular target: MAEL HMG-box (Mus musculus) (UniProt Q8BVN9); settings: 10 mM potassium phosphate pH 7.5, 50 mM KCl, 5% glycerol, 1 mM TCEP, 0.1 mg/ml BSA, 2.5 mM MgCl2, ~1 nM substrate, room temperature 30-60 min, native PAGE in ice bath, recombinant protein, residues 2-86, protein details: GST removed by PreScission (pGex6P2), label: 5' 32P
[2] = molecular target: MAEL HMG-box R23A (Mus musculus) (UniProt Q8BVN9); settings: large complex formed; 5'-terminal dC and 3'-terminal dG on each strand; 10 mM potassium phosphate pH 7.5, 50 mM KCl, 5% glycerol, 1 mM TCEP, 0.1 mg/ml BSA, 2.5 mM MgCl2, ~1 nM substrate, room temperature 30-60 min; native PAGE in ice bath; recombinant protein; residues 2-86; protein details: GST removed by PreScission (pGex6P2); label: 5' 32P
[3] = molecular target: T1, MAEL HMG-box R25A (Mus musculus) (UniProt Q8BVN9); settings: large complex formed; 5'-terminal dC and 3'-terminal dG on each strand; 10 mM potassium phosphate pH 7.5, 50 mM KCl, 5% glycerol, 1 mM TCEP, 0.1 mg/ml BSA, 2.5 mM MgCl2, ~1 nM substrate, room temperature 30-60 min; native PAGE in ice bath; recombinant protein; residues 2-86; protein details: GST removed by PreScission (pGex6P2); label: 5' 32P
T1 sequence (looked up): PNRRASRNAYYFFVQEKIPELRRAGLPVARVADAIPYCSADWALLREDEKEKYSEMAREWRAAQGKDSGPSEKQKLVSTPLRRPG

[4] = molecular target: T2, MAEL HMG-box R31A (Mus musculus) (UniProt Q8BVN9); settings: small amount of intermediate complex; 5'-terminal dC and 3'-terminal dG on each strand; 10 mM potassium phosphate pH 7.5, 50 mM KCl, 5% glycerol, 1 mM TCEP, 0.1 mg/ml BSA, 2.5 mM MgCl2, ~1 nM substrate, room temperature 30-60 min; native PAGE in ice bath; recombinant protein; residues 2-86; protein details: GST removed by PreScission (pGex6P2); label: 5' 32P
T2 sequence (looked up): T1 sequence (looked up) with A24R, R30A

[5] = molecular target: T3, MAEL HMG-box Q16A (Mus musculus) (UniProt Q8BVN9); settings: changed complexes; 5'-terminal dC and 3'-terminal dG on each strand; 10 mM potassium phosphate pH 7.5, 50 mM KCl, 5% glycerol, 1 mM TCEP, 0.1 mg/ml BSA, 2.5 mM MgCl2, ~1 nM substrate, room temperature 30-60 min; native PAGE in ice bath; recombinant protein; residues 2-86; protein details: GST removed by PreScission (pGex6P2); label: 5' 32P
T3 sequence (looked up): T1 sequence (looked up) with Q15A, A24R

| Sequence | binding result [1] | also measured |
| --- | --- | --- |
| CCCAACACCCGCAAGGGUCCACACGGGACUCCCCACGGG [RNA hairpin 5] | binds more weakly | – |
| GCGCAACAAUGCCGG / CCGGCAUUGUUGCGC [dsRNA 15 bp] | binds more weakly | – |
| GGGCCUUCUUACCGGUUGGGGCAUCUUCUGGAUAUAUGCCCAGGAGAGGUAUUGCUGGAUCCUCCGGUAGUACUAUGUCCAAUUUUCUGAGGAACCACCAGACUGAUUUCCAGAGUGGUUGUACAGCUUGCAAUCCCACCAGCAAUGAA [L1_Md_F2 149-nt RNA] | – | binding result ([1]; only partly shifted): binds more weakly |
| AACAAAGTAGGGGTGATTGTTCAGAACAAAGTAGGGGTGATTGTTCAG (double strand) [dsDNA 48 bp (24-mer repeat)] | no binding | – |
| GGGUGAACAUAGUGGAGCAUGUGUCCUUCUUACCGGUUGGGGCAUCUUCUGGAUAUAUGCCCAGGAGAGGUAUUGCUGGAUCCUCCGGUAGUACUAUGUCCAAUUUUCUGAGGAACCACCAGACUGAUUUCCAGAGUGGUUGUACAGCUUGCAAUCCCACCAGCAAUGAAGGCGUGUUCCUCUUUCUCCACAUCCACGCC [L1_Md_F2 200-nt RNA] | – | binding result ([1]; only partly shifted): binds more weakly |
| AAATATAATACGACTCACTATAGGGCTACCTACTGCAGCCGGTTACCTTTTATATAAGACAGTCGTAAACAAAGTAGGGGTGATTGTTCAGCCCTATATGTGAGTCGTATTATATTT (double strand) [dsDNA 117 bp] | no binding | – |
| CCGACAGGACUGUCAACCAGGUAAUAUACCACUUGCGG / CCGCAAGUGGUAUAUUACCUGGUACGCGUUCACGG / CCGUGAACGCGUGGUGCGAAUCGG / CCGAUUCGCACCUGACAGUCCUGUCGG [RNA 4WJ] | – | binding result [2]: binds more weakly; binding result [3]: binds more weakly; binding result [4]: binds more weakly; binding result [5]: binds more weakly |
| ATGAGGAACTTACCAGTTTTTCTTATCAATGAAACAATAACAAAGCGC (double strand) [dsDNA 48 bp second] | no binding | – |
| GGAUCUCUGCACACAACAGUUGUCC [RNA hairpin 3] | binds more weakly | – |
| AACAAAGTAGGGGTGATTGTTCAG (double strand) [dsDNA 24 bp] | no binding | – |
| GTGTAGTCGTGATAGGAAAAAAATGCAGGGGGTTATAGGG (double strand) [dsDNA 40 bp] | no binding | – |
| GGAUCUCUGCACACAACAGAGGUCC [RNA hairpin 4] | – | binding result ([1]; about 40% bound at high protein, strongest of the hairpins): binds more weakly |
| CAGTCGACGTCGTGAC (double strand) [dsDNA 16 bp] | no binding | – |
